# About 760 (0.19%) of roughly 390,000 compounds were called active. The shares of active, inactive and inconclusive entries below differ from those in the screen. Calls follow the shape of the dose curve; as a rule, active = well fitted inhibition curve with a large enough effect; inconclusive = small, poorly fitted or top-dose-only effect; inactive = flat fitted curve, though single readings scatter. Potencies beside an inconclusive call are fits to weak or partial responses and may not hold up.
# Experiment: qHTS for Inhibitors of Vif-A3F Interactions: qHTS; also: nearly all actives have a fitted effect of over 65% in size
# Conditions: HeLa A3F-eYFP + Vif (tagged APOBEC3F with the HIV-1 protein that degrades it), YFP fluorescence increase; series mostly up to 46.1 µM
# Procedure, shortened: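 HeLa cells stably expressing Vif plus C-terminally eYFP-tagged A3F were seeded, incubated overnight at 37 deg C, dosed with compound, incubated overnight again at 37 deg C. Yellow fluorescence (Ex 488/Em 500-530) reported blocked Vif-mediated A3F-eYFP degradation.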
# Potency is read from the fitted curve at half-maximal effect.
row,SMILES,Potency
1,Cc1ccc(Nc2nc3ccccc3n3nnnc23)cc1,"inconclusive: 20 µM [inhibitor, partial curve, poor fit]"
2,COCCNC(=S)N/N=C(\C)c1ccc(O)cc1,"inconclusive: 35.5 µM [inhibitor, single point]"
3,Cc1ccc(NC(=O)c2sc3ncnc(N(C)C4CCCCC4)c3c2C)cc1,inactive
4,O=C(COC(=O)c1ccc2ncsc2c1)NC(=O)NCc1ccccc1,"inconclusive: 0.355 µM [inhibitor, full curve, poor fit]"
5,COc1cccc(/C=N/Nc2cc(Cl)nc(C)n2)c1O,"inconclusive: 20 µM [inhibitor, single point]"
6,Cc1cc(Br)ccc1NC(=O)CCSc1ccccc1,inactive
7,Cc1c(/C=N/NC(=O)c2ccccc2O)c2ccccn2c1C(=O)c1ccc(F)cc1,inactive
8,COc1ccc(C(CNC(=O)Cc2ccc(-c3ccccc3)cc2)N(C)C)cc1 (centres undefined),inactive
9,COC(=O)CSc1nc2ccccn2c(=O)c1C=O,"inconclusive: 35.5 µM [inhibitor, single point]"
10,CCc1c(C)[nH]n(-c2nc(-c3cccc([N+](=O)[O-])c3)cs2)c1=O,"inconclusive: 3.55 µM [inhibitor, partial curve, poor fit]"
11,N#C/C(=C\c1ccc(C(=O)O)cc1)c1nc2sc3c(c2c(=O)[nH]1)CCCC3,"inconclusive: 10 µM [inhibitor, partial curve]"
12,ClCCn1cnc2c(SCc3ccccc3Cl)ncnc21,inactive
13,CC(C)c1ccc(NC(=S)NCc2ccc3c(c2)OCO3)cc1,"inconclusive: 20 µM [inhibitor, single point]"
14,COc1ccccc1Nc1nc(-c2ccccc2O)nc2ccccc12,"inconclusive: 35.5 µM [inhibitor, single point]"
15,O=C(N1CCCCC1)N1CCN(S(=O)(=O)c2ccccc2)CC1,"inconclusive: 35.5 µM [inhibitor, single point]"
16,CC(=O)Nc1nnc(SCC(=O)NC2CC2)s1,"inconclusive: 31.6 µM [inhibitor, single point]"
17,COc1ccc(CSc2nnnn2Cc2ccccc2)cc1OC,"inconclusive: 6.31 µM [inhibitor, single point]"
18,CC(C)(C)OC(=O)N/N=C\c1ccc(OC(=O)c2cccs2)cc1,inactive
19,O=CNCc1nc2ccccc2n1CCc1ccccc1,"inconclusive: 6.31 µM [inhibitor, single point]"
20,Cc1ccc(NC(=O)CN2C(=O)S/C(=C\c3ccc(-c4cccc(C(=O)O)c4C)o3)C2=O)cc1C,"inconclusive: 22.4 µM [inhibitor, single point]"
21,CCCCCC/C=N/Nc1nnc(Cc2ccc(OC)c(OC)c2)c(=O)[nH]1,"inconclusive: 6.31 µM [inhibitor, single point]"
22,COc1ccc(NC(=O)CSc2ccc3c4c(cccc24)C(=O)c2ccccc2-3)cc1,active: 11.2 µM
23,Cc1cccc(C)c1NC(=O)CN(C)C(=O)c1ccc(-n2cncn2)c([N+](=O)[O-])c1,"inconclusive: 3.98 µM [inhibitor, full curve, poor fit]"

row,SMILES,Potency
1,O=C(NC1CCCC1)C(c1ccc(Cl)cc1)N1CCc2ccccc21 (centres undefined),inactive
2,CC1Sc2ccc(C(=O)NCc3ccccn3)cc2NC1=O (centres undefined),active: 12.6 µM
3,CC1CN(CCCCSc2ccc(Cl)cc2)CC(C)O1 (centres undefined),inactive
4,Cc1nc2ccccc2n1CC(=O)N/N=C\C=C\c1ccccc1,inactive
5,CSc1nsc(/C=C/Nc2cccc(Cl)c2)c1C#N,"inconclusive: 31.6 µM [inhibitor, single point]"
6,CS(=O)(=O)N1CCn2c1nc1ccccc12,inactive
7,Cc1ccc(C)c(S(=O)(=O)Nc2cc(SCC(=O)O)c(O)c3ccccc23)c1,inactive
8,O=C(c1cc([N+](=O)[O-])ccc1N1CCOCC1)N1CCN(S(=O)(=O)c2cc(Cl)ccc2Cl)CC1,"inconclusive: 2.82 µM [inhibitor, single point]"
9,CC(/C=C/c1ccc(N(C)C)cc1)=N\N=C1\NC(=O)CC(C(=O)Nc2ccccc2)S1 (centres undefined),"inconclusive: 17.8 µM [inhibitor, single point]"
10,CCCCCCCCNC(=O)/C(C#N)=C/c1ccccc1[N+](=O)[O-],"inconclusive: 15.8 µM [inhibitor, single point]"
11,Nn1c(SCC(=O)Nc2ccc(S(N)(=O)=O)cc2)nnc1C(F)(F)F,"inconclusive: 11.2 µM [inhibitor, partial curve, poor fit]"
12,CCCn1c(CC)nc([N+](=O)[O-])c1S(=O)(=O)c1ccccc1,inactive
13,N#C/C(=C\c1ccco1)c1nc2ccccc2s1,"inconclusive: 14.1 µM [inhibitor, partial curve, poor fit]"
14,Cc1ccc(S(=O)(=O)CCSc2nc(C)cc(C(F)(F)F)c2C#N)cc1,"inconclusive: 20 µM [inhibitor, partial curve, poor fit]"
15,Cc1ccc(-c2cc(-c3ccc(F)cc3)nc(N)c2C#N)o1,inactive
16,Cc1cc(Nc2ccccc2)nc(NCc2ccccc2)n1,inactive
17,CCCCSc1cnn(-c2ccccc2)c(=O)c1SCCCC,"inconclusive: 35.5 µM [inhibitor, single point]"
18,COc1cccc(CNC(=O)[C@H](C)NC(=O)C2CCN(S(=O)(=O)c3ccccc3)CC2)c1,inactive
19,CCOc1ccccc1NC(=O)C1CCC(=O)N1S(=O)(=O)c1ccc(C)cc1 (centres undefined),"inconclusive: 3.16 µM [inhibitor, single point]"
20,CCCn1c(NC(=O)CCS(=O)(=O)c2ccc(C)cc2)nc2ccccc21,"inconclusive: 17.8 µM [inhibitor, partial curve, poor fit]"
21,CC1CCCC(C)N1C(=O)/C=C/c1ccc(S(=O)(=O)N2CCOCC2)cc1 (centres undefined),"inconclusive: 3.98 µM [inhibitor, partial curve, poor fit]"
22,COC(=O)c1ccc(NC(=O)CSc2nc(=O)[nH]c3c2CCCC3)cc1,"inconclusive: 35.5 µM [inhibitor, single point]"
23,COc1cc([N+](=O)[O-])cc(/C=N/NC(=O)c2cc(C)nc3ccccc23)c1O,"inconclusive: 5.62 µM [inhibitor, single point]"

# In the list so far, 3 have a furan ring, fused or not.
row,SMILES,Potency
20,Cc1ccc(NC(=O)CN2C(=O)S/C(=C\c3ccc(-c4cccc(C(=O)O)c4C)o3)C2=O)cc1C,"inconclusive: 22.4 µM [inhibitor, single point]"
13,N#C/C(=C\c1ccco1)c1nc2ccccc2s1,"inconclusive: 14.1 µM [inhibitor, partial curve, poor fit]"
15,Cc1ccc(-c2cc(-c3ccc(F)cc3)nc(N)c2C#N)o1,inactive

# Later entries.

row,SMILES,Potency
1,COCc1cc(CN2CCCC(C(=O)Nc3ccc(-c4ccco4)cc3)C2)ccc1OC (centres undefined),"inconclusive: 35.5 µM [inhibitor, single point]"
2,CSc1nsc(SCC(=O)Nc2ccccc2)n1,"inconclusive: 15.8 µM [inhibitor, single point]"
3,Cc1cccc(NS(=O)(=O)c2cccc(C(=O)N3CCCC(C(F)(F)F)C3)c2)c1 (centres undefined),"inconclusive: 6.31 µM [inhibitor, single point]"
4,CC12CCC(C(=O)NCCCN3CCOCC3)(C(Br)C1=O)C2(C)C (centres undefined),"inconclusive: 35.5 µM [inhibitor, single point]"
5,COc1cccc(-c2cn3nc4c(nc3n2)CCCC4)c1,"inconclusive: 35.5 µM [inhibitor, partial curve, poor fit]"
6,COc1ccc2c3c(ccc2c1)C(=O)/C(=C/O)CC3,inactive
7,Cc1nnc2sc(SCC(=O)Nc3ccc(Cl)cc3)nn2c1=O,"inconclusive: 6.31 µM [inhibitor, single point]"
8,COC(=O)CC(NC(=O)c1ccco1)c1cccc2ccccc12 (centres undefined),"inconclusive: 1.58 µM [inhibitor, partial curve, poor fit]"
9,COc1cc(N/N=C/c2ccccc2O)ncn1,"inconclusive: 12.6 µM [inhibitor, single point]"
10,Cc1ccc(S(=O)(=O)CC(=O)c2ccc([N+](=O)[O-])cc2)cc1,inactive
11,CN(C)c1ccc(/C=C2\NC(=S)N(Cc3ccccc3)C2=O)cc1,"inconclusive: 3.16 µM [inhibitor, partial curve, poor fit]"
12,C/C(CCc1ccccc1)=N\NC(=O)c1ccccc1,"inconclusive: 35.5 µM [inhibitor, single point]"
13,COC(=O)c1ccc(NC(=O)c2cc(S(=O)(=O)N3CCOCC3)cn2C)cc1,"inconclusive: 35.5 µM [inhibitor, single point]"
14,CNC(=O)NC(=O)C(c1ccccc1)N(C)CC1COc2ccccc2O1 (centres undefined),"inconclusive: 7.94 µM [inhibitor, partial curve, poor fit]"
15,Cc1ccnc(NC(=O)C2CCN(S(=O)(=O)c3ccc(C)c(C)c3)CC2)c1,inactive
16,Cc1cc(C)c2nc3sc(C(=O)N4CCOCC4)c(N)c3cc2c1,"inconclusive: 17.8 µM [inhibitor, partial curve, poor fit]"
17,O=C(COC(=O)CCC(=O)N1CCOCC1)Nc1ccc(Br)cc1Br,"inconclusive: 3.16 µM [inhibitor, partial curve, poor fit]"
18,COc1ccc2nc(C)cc(NCc3cccc(C(F)(F)F)c3)c2c1,"inconclusive: 14.1 µM [inhibitor, partial curve, poor fit]"
19,COC(=O)C1=CO[C@@H](O)C2C(CO)=CCC12 (some centres undefined),"inconclusive: 35.5 µM [inhibitor, single point]"
20,CC(=O)c1ccc(-c2ccc(C(=O)Nc3nc(-c4ccccn4)cs3)o2)cc1,"inconclusive: 35.5 µM [inhibitor, single point]"
21,CC(=O)c1cccc(NC(=O)CSc2ncc3c(n2)-c2cc(Cl)ccc2N(Cc2ccccc2)S3(=O)=O)c1,inactive
22,COC(=O)CSc1nnc(CSc2nc(C)cc(C)n2)o1,"inconclusive: 5.62 µM [inhibitor, single point]"
23,CCCCCc1nnc(NC(=O)c2ccc(=O)n(C)n2)s1,"inconclusive: 0.562 µM [inhibitor, full curve, poor fit]"

# Among those listed so far, these contain a COOH group:
row,SMILES,Potency
11,N#C/C(=C\c1ccc(C(=O)O)cc1)c1nc2sc3c(c2c(=O)[nH]1)CCCC3,"inconclusive: 10 µM [inhibitor, partial curve]"
20,Cc1ccc(NC(=O)CN2C(=O)S/C(=C\c3ccc(-c4cccc(C(=O)O)c4C)o3)C2=O)cc1C,"inconclusive: 22.4 µM [inhibitor, single point]"
7,Cc1ccc(C)c(S(=O)(=O)Nc2cc(SCC(=O)O)c(O)c3ccccc23)c1,inactive
